The supplement of paper PMC10849652
Some of the results follow.

Amino acid sequences for entries named in this document (tags omitted). A change or cut given only in a name is not applied to a line headed by its entry.
UniProt Q03113, whole entry, looked up: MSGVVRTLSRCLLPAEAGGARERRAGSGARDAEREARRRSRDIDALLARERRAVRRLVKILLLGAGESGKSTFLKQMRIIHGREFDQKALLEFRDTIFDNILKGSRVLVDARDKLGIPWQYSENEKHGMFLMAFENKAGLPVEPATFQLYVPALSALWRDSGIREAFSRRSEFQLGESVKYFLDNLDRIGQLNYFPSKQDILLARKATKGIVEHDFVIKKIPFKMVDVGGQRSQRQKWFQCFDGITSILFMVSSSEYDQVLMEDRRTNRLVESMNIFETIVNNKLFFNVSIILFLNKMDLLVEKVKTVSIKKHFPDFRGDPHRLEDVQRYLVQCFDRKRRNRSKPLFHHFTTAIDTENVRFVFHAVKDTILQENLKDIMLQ
UniProt Q04760: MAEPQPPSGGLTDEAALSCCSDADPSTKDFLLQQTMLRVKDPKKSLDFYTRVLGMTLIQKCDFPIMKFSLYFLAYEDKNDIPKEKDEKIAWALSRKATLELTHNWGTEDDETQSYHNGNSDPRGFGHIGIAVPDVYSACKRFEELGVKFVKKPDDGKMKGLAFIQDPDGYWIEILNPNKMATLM
UniProt Q9HAV0, whole entry, looked up: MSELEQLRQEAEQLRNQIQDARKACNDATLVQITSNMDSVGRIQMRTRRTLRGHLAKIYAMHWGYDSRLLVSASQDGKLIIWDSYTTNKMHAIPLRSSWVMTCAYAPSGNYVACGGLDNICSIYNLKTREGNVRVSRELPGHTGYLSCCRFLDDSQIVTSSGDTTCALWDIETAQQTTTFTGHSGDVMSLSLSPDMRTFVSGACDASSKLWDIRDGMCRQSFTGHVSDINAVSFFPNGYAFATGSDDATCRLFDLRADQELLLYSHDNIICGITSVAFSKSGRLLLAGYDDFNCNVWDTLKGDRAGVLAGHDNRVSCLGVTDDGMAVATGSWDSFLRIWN
UniProt Q9UKJ3: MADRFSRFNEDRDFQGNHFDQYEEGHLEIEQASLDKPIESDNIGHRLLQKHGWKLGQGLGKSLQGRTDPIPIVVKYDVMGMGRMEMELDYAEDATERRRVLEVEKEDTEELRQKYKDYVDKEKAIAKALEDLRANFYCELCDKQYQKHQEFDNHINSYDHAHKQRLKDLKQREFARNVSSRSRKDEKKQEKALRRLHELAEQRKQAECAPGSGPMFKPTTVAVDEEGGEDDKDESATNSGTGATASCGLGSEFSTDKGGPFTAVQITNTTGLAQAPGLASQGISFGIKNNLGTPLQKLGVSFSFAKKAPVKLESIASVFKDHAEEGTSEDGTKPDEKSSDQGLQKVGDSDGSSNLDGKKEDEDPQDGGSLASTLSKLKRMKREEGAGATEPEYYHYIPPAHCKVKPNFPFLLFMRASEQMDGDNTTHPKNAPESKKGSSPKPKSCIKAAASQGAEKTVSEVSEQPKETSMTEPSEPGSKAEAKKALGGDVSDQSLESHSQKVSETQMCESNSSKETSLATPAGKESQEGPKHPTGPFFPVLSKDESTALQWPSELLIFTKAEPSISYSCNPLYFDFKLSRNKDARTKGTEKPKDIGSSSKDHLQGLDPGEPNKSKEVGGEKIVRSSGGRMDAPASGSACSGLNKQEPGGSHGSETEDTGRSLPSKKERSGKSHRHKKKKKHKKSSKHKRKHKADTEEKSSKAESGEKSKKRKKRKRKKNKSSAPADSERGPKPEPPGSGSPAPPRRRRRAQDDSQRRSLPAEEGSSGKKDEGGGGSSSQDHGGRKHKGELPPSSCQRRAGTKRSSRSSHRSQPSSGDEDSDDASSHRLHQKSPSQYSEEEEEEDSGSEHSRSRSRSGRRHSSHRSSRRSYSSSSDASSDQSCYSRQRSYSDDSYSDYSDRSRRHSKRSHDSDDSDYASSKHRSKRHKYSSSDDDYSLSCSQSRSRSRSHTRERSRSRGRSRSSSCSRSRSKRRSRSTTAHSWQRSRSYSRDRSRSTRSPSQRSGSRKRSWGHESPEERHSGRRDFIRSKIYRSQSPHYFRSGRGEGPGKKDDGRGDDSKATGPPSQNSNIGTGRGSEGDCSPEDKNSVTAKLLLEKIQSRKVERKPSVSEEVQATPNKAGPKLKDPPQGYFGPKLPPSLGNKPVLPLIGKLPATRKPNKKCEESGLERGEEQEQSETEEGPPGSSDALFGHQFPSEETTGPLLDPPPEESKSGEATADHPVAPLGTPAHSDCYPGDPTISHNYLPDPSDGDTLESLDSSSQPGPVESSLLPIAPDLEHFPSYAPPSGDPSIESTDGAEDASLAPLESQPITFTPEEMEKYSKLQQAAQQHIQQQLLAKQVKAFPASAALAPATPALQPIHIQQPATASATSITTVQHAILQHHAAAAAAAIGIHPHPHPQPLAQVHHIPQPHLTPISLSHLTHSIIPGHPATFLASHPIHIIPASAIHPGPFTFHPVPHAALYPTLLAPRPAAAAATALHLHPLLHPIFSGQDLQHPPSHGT
UniProt Q96EK6: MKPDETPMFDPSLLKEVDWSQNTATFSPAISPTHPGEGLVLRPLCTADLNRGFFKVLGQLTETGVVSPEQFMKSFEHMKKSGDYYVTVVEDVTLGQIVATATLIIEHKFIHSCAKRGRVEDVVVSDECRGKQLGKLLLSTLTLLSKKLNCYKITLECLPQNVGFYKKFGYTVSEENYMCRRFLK
UniProt B7ZAQ6: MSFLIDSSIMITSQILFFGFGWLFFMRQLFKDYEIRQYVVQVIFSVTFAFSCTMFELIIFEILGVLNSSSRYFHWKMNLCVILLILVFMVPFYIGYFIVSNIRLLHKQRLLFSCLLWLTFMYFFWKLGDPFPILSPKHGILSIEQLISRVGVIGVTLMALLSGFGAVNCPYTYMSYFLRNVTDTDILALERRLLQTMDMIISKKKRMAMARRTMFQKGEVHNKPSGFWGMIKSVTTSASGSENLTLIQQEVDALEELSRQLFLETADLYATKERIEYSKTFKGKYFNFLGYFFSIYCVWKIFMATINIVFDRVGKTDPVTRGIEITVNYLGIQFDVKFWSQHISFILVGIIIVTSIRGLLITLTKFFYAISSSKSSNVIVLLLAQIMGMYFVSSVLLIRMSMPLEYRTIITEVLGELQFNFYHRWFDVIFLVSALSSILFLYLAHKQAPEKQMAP
UniProt P32189: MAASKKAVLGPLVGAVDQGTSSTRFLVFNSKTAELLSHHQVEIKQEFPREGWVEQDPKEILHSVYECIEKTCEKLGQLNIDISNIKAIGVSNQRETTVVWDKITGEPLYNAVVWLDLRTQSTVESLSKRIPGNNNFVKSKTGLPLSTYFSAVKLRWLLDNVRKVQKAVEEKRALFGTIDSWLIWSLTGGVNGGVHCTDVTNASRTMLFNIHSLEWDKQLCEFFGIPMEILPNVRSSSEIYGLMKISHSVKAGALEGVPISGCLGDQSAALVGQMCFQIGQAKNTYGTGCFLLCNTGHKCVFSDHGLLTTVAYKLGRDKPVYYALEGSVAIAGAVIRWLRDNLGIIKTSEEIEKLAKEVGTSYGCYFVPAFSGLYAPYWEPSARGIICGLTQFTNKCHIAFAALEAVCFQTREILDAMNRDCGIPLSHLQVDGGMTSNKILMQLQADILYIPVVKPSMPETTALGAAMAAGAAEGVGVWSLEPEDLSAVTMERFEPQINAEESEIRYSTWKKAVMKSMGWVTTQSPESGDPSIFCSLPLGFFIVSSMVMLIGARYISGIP
UniProt Q9HCN4, whole entry, looked up: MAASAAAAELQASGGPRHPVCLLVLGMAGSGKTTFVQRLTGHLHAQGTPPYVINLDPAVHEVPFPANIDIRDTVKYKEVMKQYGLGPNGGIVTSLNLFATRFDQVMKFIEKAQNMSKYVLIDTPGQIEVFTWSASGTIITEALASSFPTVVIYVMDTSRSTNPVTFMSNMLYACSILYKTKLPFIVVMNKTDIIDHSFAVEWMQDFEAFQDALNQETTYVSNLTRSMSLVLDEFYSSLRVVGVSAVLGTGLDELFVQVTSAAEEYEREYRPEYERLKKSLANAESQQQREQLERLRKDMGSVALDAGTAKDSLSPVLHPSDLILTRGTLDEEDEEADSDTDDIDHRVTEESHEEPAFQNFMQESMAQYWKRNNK
UniProt Q13439: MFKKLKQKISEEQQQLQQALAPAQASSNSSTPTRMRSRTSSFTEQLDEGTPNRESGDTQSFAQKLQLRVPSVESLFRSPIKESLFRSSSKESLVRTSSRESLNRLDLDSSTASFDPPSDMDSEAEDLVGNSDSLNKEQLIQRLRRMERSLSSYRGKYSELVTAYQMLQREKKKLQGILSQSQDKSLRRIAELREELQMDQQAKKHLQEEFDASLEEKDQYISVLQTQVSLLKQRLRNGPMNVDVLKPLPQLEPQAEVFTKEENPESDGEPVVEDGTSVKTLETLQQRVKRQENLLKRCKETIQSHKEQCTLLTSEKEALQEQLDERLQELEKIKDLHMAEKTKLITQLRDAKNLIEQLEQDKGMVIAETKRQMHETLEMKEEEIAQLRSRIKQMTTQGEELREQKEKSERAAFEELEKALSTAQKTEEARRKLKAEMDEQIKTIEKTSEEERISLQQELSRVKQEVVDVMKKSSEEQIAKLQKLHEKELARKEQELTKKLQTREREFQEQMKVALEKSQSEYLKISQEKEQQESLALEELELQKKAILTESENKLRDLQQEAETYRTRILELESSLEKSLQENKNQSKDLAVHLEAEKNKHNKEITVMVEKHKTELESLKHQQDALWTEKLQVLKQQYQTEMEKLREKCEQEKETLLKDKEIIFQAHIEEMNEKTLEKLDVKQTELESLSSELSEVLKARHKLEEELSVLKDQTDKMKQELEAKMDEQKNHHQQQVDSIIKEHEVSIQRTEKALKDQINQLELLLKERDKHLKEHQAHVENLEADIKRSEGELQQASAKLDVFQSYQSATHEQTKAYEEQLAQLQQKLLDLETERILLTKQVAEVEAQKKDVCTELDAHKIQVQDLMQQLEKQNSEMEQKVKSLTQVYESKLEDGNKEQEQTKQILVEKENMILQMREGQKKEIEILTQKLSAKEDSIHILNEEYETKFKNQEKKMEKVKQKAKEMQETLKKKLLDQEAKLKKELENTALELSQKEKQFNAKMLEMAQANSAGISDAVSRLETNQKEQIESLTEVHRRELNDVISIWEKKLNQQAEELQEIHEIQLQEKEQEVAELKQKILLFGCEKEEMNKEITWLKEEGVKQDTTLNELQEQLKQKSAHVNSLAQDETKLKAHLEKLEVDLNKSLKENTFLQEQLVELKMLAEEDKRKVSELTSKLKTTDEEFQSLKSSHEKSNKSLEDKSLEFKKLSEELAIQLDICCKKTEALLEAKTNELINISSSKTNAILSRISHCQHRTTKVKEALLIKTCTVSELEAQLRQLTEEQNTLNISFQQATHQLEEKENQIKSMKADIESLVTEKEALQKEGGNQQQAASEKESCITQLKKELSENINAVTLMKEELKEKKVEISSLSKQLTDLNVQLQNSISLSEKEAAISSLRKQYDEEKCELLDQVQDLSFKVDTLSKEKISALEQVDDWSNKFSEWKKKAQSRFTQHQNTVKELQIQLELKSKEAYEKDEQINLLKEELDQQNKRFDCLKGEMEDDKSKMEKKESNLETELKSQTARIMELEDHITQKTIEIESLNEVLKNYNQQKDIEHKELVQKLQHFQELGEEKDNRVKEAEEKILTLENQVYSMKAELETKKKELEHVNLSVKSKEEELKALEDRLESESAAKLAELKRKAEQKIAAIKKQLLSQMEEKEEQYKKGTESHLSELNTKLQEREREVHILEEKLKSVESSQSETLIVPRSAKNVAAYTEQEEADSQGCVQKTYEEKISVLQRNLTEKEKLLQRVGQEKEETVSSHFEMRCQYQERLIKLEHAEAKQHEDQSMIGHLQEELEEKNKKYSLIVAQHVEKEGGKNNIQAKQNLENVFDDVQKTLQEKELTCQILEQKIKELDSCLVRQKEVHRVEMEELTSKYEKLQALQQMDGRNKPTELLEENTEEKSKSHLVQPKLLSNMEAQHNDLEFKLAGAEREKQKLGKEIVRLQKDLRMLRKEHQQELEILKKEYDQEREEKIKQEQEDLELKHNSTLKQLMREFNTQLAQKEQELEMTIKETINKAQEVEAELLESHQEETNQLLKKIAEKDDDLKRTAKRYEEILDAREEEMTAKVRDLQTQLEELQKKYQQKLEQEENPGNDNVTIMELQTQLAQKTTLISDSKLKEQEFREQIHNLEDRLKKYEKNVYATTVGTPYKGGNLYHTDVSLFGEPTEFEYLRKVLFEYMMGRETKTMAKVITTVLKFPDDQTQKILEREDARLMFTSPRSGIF
UniProt Q9BXV9: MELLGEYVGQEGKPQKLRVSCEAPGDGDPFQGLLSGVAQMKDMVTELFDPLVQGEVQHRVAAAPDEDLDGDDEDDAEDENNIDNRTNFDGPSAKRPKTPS
UniProt P46926: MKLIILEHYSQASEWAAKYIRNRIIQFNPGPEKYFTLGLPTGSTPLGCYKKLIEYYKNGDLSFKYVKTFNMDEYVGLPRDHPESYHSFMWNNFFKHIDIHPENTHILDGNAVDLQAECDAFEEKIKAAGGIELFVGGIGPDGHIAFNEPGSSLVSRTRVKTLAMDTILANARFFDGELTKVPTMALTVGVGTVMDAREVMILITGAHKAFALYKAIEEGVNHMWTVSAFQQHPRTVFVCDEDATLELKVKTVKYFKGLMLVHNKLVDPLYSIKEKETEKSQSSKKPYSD

How the values were obtained:
Experiment in all cases: log2 fold change, soluble protein after heating vs DMSO (PISA); higher = thermal stabilisation; K562 cells, 10 uM, 30 min; active = over 0.2 and 3.5 SD of the protein, either way, in both replicates (recomputed)
[1] = compound: CS(=O)(=O)c1ccc(-c2cnc(N)c(C(=O)Nc3ccccc3)n2)cc1
Outline: (§1)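 Quantification of soluble protein used TMTpro 16plex LC-MS/MS, with channel sums equalised. Samples were the supernatant after 21,000xg for 90 min of pooled aliquots from K562 cells (2×10^6 cells/mL) treated with 10 μM compound for 30 min, heated for 3 min over 48°C-58°C, and extracted in PBS with 0.5% NP-40 at 4°C. Values, from duplicates, describe thermal stability against control samples on a log2 fold-change scale.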

[2] = compound: C[C@@H](Oc1cc(-c2cnn(C3CCNCC3)c2)cnc1N)c1c(Cl)ccc(F)c1Cl [crizotinib]
Outline: as §1

[3] = compound: C[C@@H]1COCCN1C2=NC(=NC(=C2)C3(CC3)S(=O)(=O)C)C4=C5C=CNC5=CC=C4
Outline: as §1

[4] = compound: C[C@H](C1=CC=C(C=C1)C(=O)NC2=C3C=CNC3=NC=C2)N
Outline: as §1

[5] = compound: C[C@H](Nc1ncnc2nc[nH]c12)c1cc2cccc(Cl)c2c(=O)n1-c1ccccc1 [duvelisib]
Outline: as §1

[6] = compound: Cc1cc(Nc2cc(CN3CCOCC3)c3nc(C)c(Cc4ccc(Cl)cc4F)n3n2)n[nH]1 [gandotinib]
Outline: as §1

[7] = compound: Cc1cc(Nc2cc(N3CCN(C)CC3)nc(Sc3ccc(NC(=O)C4CC4)cc3)n2)n[nH]1 [tozasertib]
Outline: as §1

[8] = compound: Cc1cc(SCc2sc(-c3ccc(C(F)(F)F)cc3)nc2C)ccc1OCC(=O)O
Outline: as §1

[9] = compound: Cc1ccc(-n2nc(C(C)(C)C)cc2NC(=O)Nc2ccc(OCCN3CCOCC3)c3ccccc23)cc1 [doramapimod]
Outline: as §1

[10] = compound: Cc1ccc(C(=O)N(CCCN)[C@@H](c2nc3cc(Cl)ccc3c(=O)n2Cc2ccccc2)C(C)C)cc1 [ispinesib]
Outline: as §1

Measured: log2 fold change

GMPPB isoform 2 (UniProt Q9Y5P6)
inactive: [1] 0.007 | [2] 0.005 | [3] 0.026 | [4] -0.038 | [5] 0.004 | [6] 0.038 | [7] -0.055 | [8] 0.007 | [9] 0.007 | [10] -0.016

GNA12 (UniProt Q03113)
inactive: [1] -0.077 | [2] -0.034 | [3] 0.124 | [4] 0.199 | [5] 0.236 | [6] -0.407 | [7] -0.052 | [8] -0.11 | [9] 0.142

GPI (UniProt P06744)
inactive: [1] 0 | [2] 0.032 | [3] 0.025 | [4] -0.098 | [5] 0.011 | [6] -0.031 | [7] -0.002 | [8] -0.003 | [9] -0.034 | [10] 0.042

GP1BB isoform 2 (UniProt P13224)
inactive: [1] 0.03 | [2] -0.116 | [3] -0.049 | [4] 0.027 | [5] 0.021 | [6] -0.021 | [7] 0.006 | [8] 0.023 | [9] 0.003

GNPDA2 (UniProt Q8TDQ7)
inactive: [1] 0.016 | [2] 0.036 | [3] 0.036 | [4] -0.141 | [5] 0 | [6] 0.034 | [7] 0.065 | [8] 0.003 | [9] -0.025 | [10] -0.014

GOLGA5 (UniProt Q8TBA6)
inactive: [1] 0.027 | [2] 0.066 | [3] -0.007 | [4] -0.036 | [5] -0.018 | [6] 0.039 | [7] 0.001 | [8] -0.024 | [9] -0.018 | [10] 0.106

GLO1 (UniProt Q04760)
inactive: [1] -0.007 | [2] 0.064 | [3] 0.019 | [4] -0.035 | [5] 0.04 | [6] 0.027 | [7] -0.024 | [8] -0.026 | [9] -0.043 | [10] 0.047

GNB4 (UniProt Q9HAV0)
inactive: [1] 0.055 | [2] 0.188 | [3] 0.147 | [4] -0.04 | [5] -0.093 | [6] -0.101 | [7] -0.009 | [8] 0.005 | [9] -0.024 | [10] 0.172

GNE isoform 2 (UniProt Q9Y223)
inactive: [1] 0.081 | [2] -0.145 | [3] 0.085 | [4] -0.006 | [5] 0.005 | [6] -0.141 | [7] -0.092 | [8] 0.008 | [9] 0.041 | [10] -0.018

GPATCH8 (UniProt Q9UKJ3)
inactive: [1] -0.015 | [2] -0.051 | [3] 0.007 | [4] 0.01 | [5] -0.018 | [6] 0.017 | [7] -0.02 | [8] -0.063 | [9] 0.015 | [10] 0.011

GRPEL1 (UniProt Q9HAV7)
inactive: [1] 0.007 | [2] 0.063 | [3] 0.069 | [4] -0.052 | [5] 0.005 | [6] -0.009 | [7] 0.001 | [8] -0.03 | [9] -0.024 | [10] 0.115

GOLGA7 (UniProt Q7Z5G4)
inactive: [1] 0.077 | [2] 0.05 | [3] 0.116 | [4] -0.094 | [5] 0.043 | [6] 0.025 | [7] -0.05 | [8] -0.029 | [9] -0.069

GNPNAT1 (UniProt Q96EK6)
inactive: [1] -0.021 | [2] 0.01 | [3] 0.049 | [4] -0.1 | [5] 0.017 | [6] -0.006 | [7] -0.036 | [8] -0.1 | [9] -0.002 | [10] 0.03

GPR89A (UniProt B7ZAQ6)
inactive: [1] 0.044 | [2] 0.023 | [3] 0.028 | [4] -0.046 | [5] -0.018 | [6] 0.027 | [7] -0.022 | [8] -0.006 | [9] 0.003 | [10] -0.149

GM2A (UniProt P17900)
inactive: [1] 0.01 | [2] 0.121 | [3] 0.037 | [4] 0.019 | [5] 0.008 | [6] 0.039 | [7] 0.116 | [8] -0.046 | [9] -0.054 | [10] 0.031

GNA11 (UniProt P29992)
inactive: [1] 0.045 | [2] 0.093 | [3] 0.088 | [4] -0.043 | [5] 0.042 | [6] -0.04 | [7] -0.009 | [8] -0.006 | [9] -0.009 | [10] 0.037

Copied from the entries so far (9 entries):
GMPPB isoform 2 (UniProt Q9Y5P6)
inactive: [1] 0.007 | [2] 0.005 | [3] 0.026 | [4] -0.038 | [5] 0.004 | [6] 0.038 | [7] -0.055 | [8] 0.007 | [9] 0.007 | [10] -0.016

GNA12 (UniProt Q03113)
inactive: [1] -0.077 | [2] -0.034 | [3] 0.124 | [4] 0.199 | [5] 0.236 | [6] -0.407 | [7] -0.052 | [8] -0.11 | [9] 0.142

GPI (UniProt P06744)
inactive: [1] 0 | [2] 0.032 | [3] 0.025 | [4] -0.098 | [5] 0.011 | [6] -0.031 | [7] -0.002 | [8] -0.003 | [9] -0.034 | [10] 0.042

GP1BB isoform 2 (UniProt P13224)
inactive: [1] 0.03 | [2] -0.116 | [3] -0.049 | [4] 0.027 | [5] 0.021 | [6] -0.021 | [7] 0.006 | [8] 0.023 | [9] 0.003

GNPDA2 (UniProt Q8TDQ7)
inactive: [1] 0.016 | [2] 0.036 | [3] 0.036 | [4] -0.141 | [5] 0 | [6] 0.034 | [7] 0.065 | [8] 0.003 | [9] -0.025 | [10] -0.014

GOLGA5 (UniProt Q8TBA6)
inactive: [1] 0.027 | [2] 0.066 | [3] -0.007 | [4] -0.036 | [5] -0.018 | [6] 0.039 | [7] 0.001 | [8] -0.024 | [9] -0.018 | [10] 0.106

GLO1 (UniProt Q04760)
inactive: [1] -0.007 | [2] 0.064 | [3] 0.019 | [4] -0.035 | [5] 0.04 | [6] 0.027 | [7] -0.024 | [8] -0.026 | [9] -0.043 | [10] 0.047

GNB4 (UniProt Q9HAV0)
inactive: [1] 0.055 | [2] 0.188 | [3] 0.147 | [4] -0.04 | [5] -0.093 | [6] -0.101 | [7] -0.009 | [8] 0.005 | [9] -0.024 | [10] 0.172

GNE isoform 2 (UniProt Q9Y223)
inactive: [1] 0.081 | [2] -0.145 | [3] 0.085 | [4] -0.006 | [5] 0.005 | [6] -0.141 | [7] -0.092 | [8] 0.008 | [9] 0.041 | [10] -0.018

(cont.)

GPRIN1 (UniProt Q7Z2K8)
inactive: [1] 0.011 | [2] 0.079 | [3] 0.062 | [4] -0.034 | [5] 0.136 | [6] -0.031 | [7] -0.083 | [8] -0.12 | [9] 0.012 | [10] 0.062

GK (UniProt P32189)
inactive: [1] 0.029 | [2] 0.067 | [3] 0.013 | [4] -0.007 | [5] -0.021 | [6] -0.003 | [7] -0.009 | [8] 0.012 | [9] -0.02 | [10] 0.039

GPN1 isoform 5 (UniProt Q9HCN4)
inactive: [1] 0.034 | [2] 0.05 | [3] 0.09 | [4] -0.021 | [5] 0.014 | [6] -0.092 | [7] -0.016 | [8] 0.04 | [9] -0.006 | [10] 0.021

GOLGA4 isoform 5 (UniProt Q13439)
inactive: [1] 0.088 | [2] 0.008 | [3] -0.096 | [4] 0.306 | [5] 0.04 | [6] 0.085 | [7] -0.025 | [8] 0.014 | [9] 0.023 | [10] -0.204

GOLIM4 (UniProt O00461)
inactive: [1] 0.079 | [2] -0.111 | [3] 0.035 | [4] 0.009 | [5] 0.063 | [6] 0.028 | [7] 0.017 | [8] -0.033 | [9] 0.046 | [10] -0.039

GON7 (UniProt Q9BXV9)
inactive: [1] -0.168 | [2] 0.098 | [3] 0.108 | [4] -0.235 | [5] -0.025 | [6] 0.162 | [7] -0.04 | [8] -0.074 | [9] 0.015 | [10] 0.045

GPN3 isoform 2 (UniProt Q9UHW5)
inactive: [1] -0.062 | [2] 0.01 | [3] 0.07 | [4] 0.066 | [5] 0.05 | [6] -0.021 | [7] 0 | [8] -0.005 | [9] 0 | [10] -0.012

GINS4 (UniProt Q9BRT9)
inactive: [1] -0.029 | [2] 0.014 | [3] -0.026 | [4] -0.095 | [5] 0.055 | [6] -0.086 | [7] -0.019 | [8] 0.106 | [9] -0.018 | [10] -0.007

GNPDA1 (UniProt P46926)
inactive: [1] 0.009 | [2] 0.062 | [3] 0.019 | [4] -0.049 | [5] 0.012 | [6] -0.019 | [7] 0.009 | [8] -0.048 | [9] -0.031 | [10] 0.024

GRIPAP1 (UniProt Q4V328)
inactive: [1] -0.043 | [2] 0.033 | [3] -0.035 | [4] 0.01 | [5] -0.029 | [6] -0.069 | [7] 0.17 | [8] 0.013 | [9] 0.038 | [10] -0.03

GOLIM4 (UniProt F8W785)
inactive: [1] 0.141 | [2] -0.166 | [3] -0.095 | [4] 0.117 | [5] -0.007 | [6] 0.115 | [7] 0.104 | [8] -0.063 | [9] -0.014

GPD1L (UniProt Q8N335)
inactive: [1] -0.054 | [2] 0.099 | [3] 0.044 | [4] 0.043 | [5] 0.062 | [6] 0.036 | [7] -0.029 | [8] -0.01 | [9] -0.012 | [10] 0.041

GOLGA3 (UniProt Q08378)
inactive: [1] 0.011 | [2] 0.168 | [3] 0.024 | [4] -0.024 | [5] 0.031 | [6] 0.062 | [7] 0.071 | [8] 0.012 | [9] 0.006 | [10] -0.047

GOLGA2 (UniProt Q08379)
inactive: [1] -0.037 | [2] 0.064 | [3] -0.085 | [4] 0.236 | [5] -0.083 | [6] 0.057 | [7] 0.059 | [8] 0.062 | [9] 0.085 | [10] -0.057
